Test results taken from publication PMC8371148.
No constants are given. Whether binding was seen depends on the method and setting. Some entries that bind do so weakly or less than the wild type.

By UniProt entry, the sequences of proteins in these tests, tags left out.
UniProt P08670: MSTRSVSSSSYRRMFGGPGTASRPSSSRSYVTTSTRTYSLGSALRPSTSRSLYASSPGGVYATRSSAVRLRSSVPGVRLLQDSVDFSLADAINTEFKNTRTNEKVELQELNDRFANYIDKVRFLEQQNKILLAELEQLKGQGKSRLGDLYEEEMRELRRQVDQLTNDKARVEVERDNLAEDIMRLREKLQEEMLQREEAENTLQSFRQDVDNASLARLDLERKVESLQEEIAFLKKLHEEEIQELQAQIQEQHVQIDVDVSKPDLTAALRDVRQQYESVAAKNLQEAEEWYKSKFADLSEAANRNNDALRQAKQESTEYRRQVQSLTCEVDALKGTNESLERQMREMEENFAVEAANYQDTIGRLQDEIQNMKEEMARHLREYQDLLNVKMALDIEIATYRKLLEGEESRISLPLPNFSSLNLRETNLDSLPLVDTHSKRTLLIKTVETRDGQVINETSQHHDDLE

Target: vimentin (human (endogenous in MDA-MB-231 and U2OS)) (UniProt P08670)
Experiment: single-cell size-exclusion electrophoresis fractionation (SIFTER) with in-gel immunoprobing; single cells lysed in microwells of an 8%T polyacrylamide gel in F-actin stabilization buffer (10 mM Tris-HCl, 1% Triton X-100, 2 mM MgCl2, 0.5 mM DTE, pH 7.4); PAGE at 30 V cm^-1 for 45-60 s; complexes larger than ~740 kDa are retained in the microwell, then depolymerized (SDS, deoxycholate, 8 M urea) and run in the opposite direction; cells also treated with Latrunculin A, Jasplakinolide, DMSO or heat shock

- binding: binds
Substance: vimentin (from UniProt P08670 1-466)
